According to paper PMC9837006:
These are yes or no findings as the source states them, for the method shown. In cells and extracts the contact can be indirect. Some entries that bind do so weakly or less than the wild type. Each block holds one substance with its values, some of them ahead of it.

Chains of the proteins cited; added tags and fusions are not shown.
UniProt Q15561: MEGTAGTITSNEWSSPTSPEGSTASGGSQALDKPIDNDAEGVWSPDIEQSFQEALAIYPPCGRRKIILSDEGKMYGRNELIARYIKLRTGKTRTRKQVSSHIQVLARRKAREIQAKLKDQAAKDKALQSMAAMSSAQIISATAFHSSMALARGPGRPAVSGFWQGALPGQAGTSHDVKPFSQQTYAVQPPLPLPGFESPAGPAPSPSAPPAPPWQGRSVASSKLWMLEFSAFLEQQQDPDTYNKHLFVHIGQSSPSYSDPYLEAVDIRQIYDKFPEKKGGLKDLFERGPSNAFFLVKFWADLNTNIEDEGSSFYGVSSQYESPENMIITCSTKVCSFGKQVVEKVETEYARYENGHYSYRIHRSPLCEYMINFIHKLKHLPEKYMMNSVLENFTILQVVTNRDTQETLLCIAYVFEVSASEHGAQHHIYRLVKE
UniProt P46937: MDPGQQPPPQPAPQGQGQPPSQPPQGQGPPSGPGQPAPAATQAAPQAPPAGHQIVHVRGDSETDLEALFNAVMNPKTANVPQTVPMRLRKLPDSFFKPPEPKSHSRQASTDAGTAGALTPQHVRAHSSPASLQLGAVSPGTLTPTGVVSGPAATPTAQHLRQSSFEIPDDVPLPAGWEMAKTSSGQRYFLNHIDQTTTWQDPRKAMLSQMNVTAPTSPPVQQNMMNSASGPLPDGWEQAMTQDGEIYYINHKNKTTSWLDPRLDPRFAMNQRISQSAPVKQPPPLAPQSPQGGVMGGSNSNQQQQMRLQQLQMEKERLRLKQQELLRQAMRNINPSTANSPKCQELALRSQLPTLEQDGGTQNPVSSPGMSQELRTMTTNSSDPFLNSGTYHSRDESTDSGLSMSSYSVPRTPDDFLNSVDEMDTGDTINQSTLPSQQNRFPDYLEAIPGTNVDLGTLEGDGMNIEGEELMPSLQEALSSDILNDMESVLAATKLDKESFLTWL
UniProt Q13887: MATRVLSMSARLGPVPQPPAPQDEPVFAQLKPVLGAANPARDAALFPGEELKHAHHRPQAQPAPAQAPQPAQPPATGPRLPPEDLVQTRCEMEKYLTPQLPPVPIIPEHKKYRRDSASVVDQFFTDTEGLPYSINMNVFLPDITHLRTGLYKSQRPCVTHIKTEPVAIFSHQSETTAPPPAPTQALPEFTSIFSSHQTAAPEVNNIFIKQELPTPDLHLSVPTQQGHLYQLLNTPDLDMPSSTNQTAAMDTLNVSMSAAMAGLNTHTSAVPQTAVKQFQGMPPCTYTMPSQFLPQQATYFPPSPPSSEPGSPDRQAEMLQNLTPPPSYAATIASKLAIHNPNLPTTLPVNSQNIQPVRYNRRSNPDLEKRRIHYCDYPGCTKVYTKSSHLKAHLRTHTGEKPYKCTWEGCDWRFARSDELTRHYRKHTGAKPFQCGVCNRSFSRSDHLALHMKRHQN

Key:
Myc-TEAD4 = Myc-TEAD4 (UniProt Q15561); experiment: co-IP; 293T cells transfected with fixed amounts of Myc-TEAD4 and Flag-YAP1 and increasing amounts of HA-KLF5; co-IP and western blot
[1] = target: YAP1, endogenous (human (endogenous in MCF10A, CAL51, MDA-MB-231)) (UniProt P46937); experiment: co-IP; YAP1 and KLF5 antibody reciprocal co-IP with protein A/G magnetic beads, overnight at 4 °C; lysates of CAL51 and MDA-MB-231 cells stably expressing Ctrl or CA-SRC; 50 mM Tris-HCl pH 7.5, 100 mM NaCl, 1% Triton X-100
[2] = target: 3xFlag-WT-YAP1 (isoform with 504aa) (human) (UniProt P46937); experiment: co-IP; Flag-IP (Anti-Flag M2 magnetic beads) and western blot from CA-SRC cells stably expressing Ctrl, Flag-WT or mut-YAP1
[3] = target: YAP1, endogenous (human (endogenous in MCF10A, CAL51, MDA-MB-231)) (UniProt P46937); experiment: proximity ligation; Duolink In Situ Orange Starter Kit Mouse/Rabbit, in CA-SRC MCF10A cells; YAP1 or KLF5 antibody alone as negative control
[4] = target: exogenous YAP1 in 293T cells (human) (UniProt P46937); experiment: co-IP; exogenous YAP1 and KLF5 in 293T cells with Ctrl or CA-SRC plasmids; Flag/Myc-IP and western blot

- binding (Myc-TEAD4): binds
Substance: HA-KLF5 (from UniProt Q13887 1-457)

- binding [1]: binds
- binding [2]: binds
- binding [3]: binds
Substance: Kruppel-like factor 5 (KLF5), endogenous (from UniProt Q13887 1-457)

- binding [4]: binds
Substance: exogenous KLF5 in 293T cells (from UniProt Q13887 1-457)
